From US9645128B2, “Substituted imidazo[1,2-A]pyrazines for measuring a transcription activity” (JNC CORPORATION, priority 2009, dated 2017)

Tested on: Gaussia luciferase
Experiment: Substrate specificity, luminescence activity and emission spectra of Gaussia luciferase
Details: 22 to 25° C.

In order of rising “Maximum emission wavelength λmax (nm)” value:
1. CC(c1ccccc1)c1nc2c(Cc3ccccc3)[nH]c(-c3ccc(O)cc3)cn-2c1=O (centres unmarked) [αmeh-CTZ, αmeh-coelenterazine]  473.0 nm
2. coelenterazine [CTZ, reference compound]  473.0 nm
3. Oc1ccc(-c2cn3c(O)c(Cc4ccccc4)nc3c(Cc3ccccc3)n2)cc1 [h-CTZ, h-coelenterazine, reference compound]  474.0 nm
4. COc1cccc(Cc2nc3c(Cc4ccccc4)[nH]c(-c4ccc(O)cc4)cn-3c2=O)c1 [3meo-CTZ, 3meo-coelenterazine]  474.5 nm
5. Cc1ccc(Cc2nc3c(Cc4ccccc4)[nH]c(-c4ccc(O)cc4)cn-3c2=O)cc1 [me-CTZ, me-coelenterazine]  475.0 nm
6. i-coelenterazine [i-CTZ, reference compound]  475.0 nm
7. Cc1cccc(Cc2nc3c(Cc4ccccc4)[nH]c(-c4ccc(O)cc4)cn-3c2=O)c1 [3me-CTZ, 3me-coelenterazine]  475.5 nm
8. COc1ccc(Cc2nc3c(Cc4ccccc4)[nH]c(-c4ccc(O)cc4)cn-3c2=O)cc1 [meo-CTZ, meo-coelenterazine]  475.5 nm
9. et-coelenterazine [et-CTZ]  476.0 nm
10. O=c1c(Cc2ccc(C(F)(F)F)cc2)nc2c(Cc3ccccc3)[nH]c(-c3ccc(O)cc3)cn1-2 [cf3-CTZ, cf3-coelenterazine]  476.5 nm
11. O=c1c(Cc2cccc(O)c2)nc2c(Cc3ccccc3)[nH]c(-c3ccc(O)cc3)cn1-2 [3iso-CTZ, 3-isocoelenterazine]  477.0 nm
